# Assay results as given in PubChem BioAssay AID1445 (SRMLSC, 2008).
# Protein sequences, listed by entry. Tags and fused reporters are not part of them. Lines headed by an entry give the natural chain unless they say otherwise; changes in a name come on top.
# UniProt O96935: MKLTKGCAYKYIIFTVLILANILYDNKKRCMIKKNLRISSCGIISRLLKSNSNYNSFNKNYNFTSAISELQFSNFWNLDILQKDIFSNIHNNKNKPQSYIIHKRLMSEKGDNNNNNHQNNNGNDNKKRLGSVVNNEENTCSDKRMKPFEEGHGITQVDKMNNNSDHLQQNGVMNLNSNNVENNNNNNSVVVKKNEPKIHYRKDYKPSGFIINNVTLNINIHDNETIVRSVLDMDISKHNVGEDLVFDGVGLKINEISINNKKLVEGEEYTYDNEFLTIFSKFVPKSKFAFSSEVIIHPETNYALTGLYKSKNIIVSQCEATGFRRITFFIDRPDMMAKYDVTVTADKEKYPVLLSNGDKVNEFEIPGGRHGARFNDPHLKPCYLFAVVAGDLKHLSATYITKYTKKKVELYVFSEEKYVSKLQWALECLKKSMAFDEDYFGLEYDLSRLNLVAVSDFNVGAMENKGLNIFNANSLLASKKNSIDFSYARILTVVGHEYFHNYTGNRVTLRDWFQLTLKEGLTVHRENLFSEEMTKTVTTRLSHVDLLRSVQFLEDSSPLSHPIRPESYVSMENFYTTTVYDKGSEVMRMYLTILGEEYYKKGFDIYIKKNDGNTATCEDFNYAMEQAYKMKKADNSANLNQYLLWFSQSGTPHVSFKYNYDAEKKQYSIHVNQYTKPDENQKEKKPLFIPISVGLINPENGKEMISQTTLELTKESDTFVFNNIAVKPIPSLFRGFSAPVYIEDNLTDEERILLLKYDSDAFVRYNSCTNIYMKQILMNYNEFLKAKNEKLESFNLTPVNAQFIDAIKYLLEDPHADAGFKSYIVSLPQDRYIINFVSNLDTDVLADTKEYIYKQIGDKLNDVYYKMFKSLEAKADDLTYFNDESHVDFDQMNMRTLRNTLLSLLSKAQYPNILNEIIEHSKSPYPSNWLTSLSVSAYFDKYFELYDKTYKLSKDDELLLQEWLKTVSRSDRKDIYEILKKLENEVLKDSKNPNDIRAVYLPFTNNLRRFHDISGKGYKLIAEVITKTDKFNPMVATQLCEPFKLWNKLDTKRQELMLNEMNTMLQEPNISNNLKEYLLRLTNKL
# Among all 220,000 compounds or so, about 910 (0.41%) were called active. The shares of active, inactive and inconclusive entries below differ from those in the screen.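 The calls were made as follows: active = primary inhibition above the hit cutoff, then over 50% inhibition at one or more dose response concentrations (cut at about 23% in these data, passing the limit was not always enough); inconclusive = conflicting primary data, or primary hits not chosen for dose response; inactive = low primary inhibition, or under 50% at every dose.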
# Target: Aminopeptidase N (Plasmodium falciparum (isolate 3D7)) (UniProt O96935)
# Experiment: P. falciparum M1AAP inhibitors, biochemical, fluorogenic H-Leu-NHMec substrate, 1536-well (AID 1445);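 also: plate controls were DMSO full reaction for no effect and no enzyme background for full effect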
# Settings: recombinant M1AAP, H-Leu-NHMec fluorogenic kinetic assay; at 30 µM, stronger effect = higher value unless noted
row,Compound,inhibition
1,O=c1[nH]c(CN2CCN(c3ccc([N+](=O)[O-])cc3)CC2)nc2ccsc12,active: 25.9%
2,CCOc1ccc(C(=O)NC2CCN(C(=S)NCc3ccco3)CC2)cc1,inactive: 11.3%
3,CCN(CC)c1ccc(/C=C2/C(=O)c3ccc(C(=O)O)cc3C2=O)cc1,inconclusive: 32.1%
4,O=C(CCCN1C(=O)S/C(=C\c2ccccc2)C1=O)NNC(=O)c1ccccc1O,inactive: -1.57%
5,CCOC(=O)c1ccc2c(c1)C1C=CCC1C(C(=O)O)N2 (stereo not drawn),inconclusive: 21.8%
6,CCCOc1nc2c(c(=O)n(C)c(=O)n2C)n1CCC,active: 24.2%
7,O=C(Nc1ccnc(-c2cccnc2)n1)c1ccc(Cl)cc1,inconclusive: 24.8%
8,Cc1ccc(S(=O)(=O)c2c(C)nn(C(C)(C)C)c2OC(=O)c2ccco2)cc1,active: 27.3%
9,O=c1c2c(nc3c(-c4ccccc4)c[nH]n13)CCC2,inconclusive: 24.3%
10,O=C1c2ccccc2C(=O)N1n1c(=O)[nH]c2ccccc2c1=O,inactive: 2.13%
11,CCN(CC)c1ccc(/C=C2\C(=O)c3ccc(C(=O)O)cc3C2=O)cc1,inconclusive: 34.2%
12,COc1cc2c(cc1OC)CN(C(=O)CSc1nc(C)cc(C)c1C#N)CC2,inactive: 3.39%
13,O=C(NCCc1ccc(Cl)cc1)C1CCN(S(=O)(=O)c2ccc(Br)s2)CC1,inactive: 4.81%
14,O=C(CSc1nnc(Cc2ccccc2)n1C1CCCCC1)N1CCOCC1,inactive: 4.89%
15,CCOC(=O)c1ccc(Nc2c(OCC)c(=O)c2=O)cc1,inconclusive: 26.7%
16,O=C(COc1ccccc1)N1CCN(C(=O)c2ccc([N+](=O)[O-])cc2)CC1,inconclusive: 27%
17,O=c1[nH][nH]c(-c2ccccc2)c1C=Nc1ccc(C(F)(F)F)cc1,inactive: 2.58%
18,CCn1c(C)[n+](CC)c2ccc(C(=O)N(C)c3ccccc3)cc21,inconclusive: 24%
19,CCOC(=O)CCCCC(=O)c1[nH]c(=O)[nH]c1CSc1nc2ccccc2[nH]1,inactive: 8.8%
20,CC(=O)Nc1n[nH]c(-c2ccc(C)cc2)c1C,inconclusive: 26.2%
21,COc1ccc(C(=O)CC(=O)c2ccccc2O)cc1OC,inactive: 2.33%
22,Cc1ccccc1OCc1nc2ccccc2c(=O)n1NC(=O)c1ccco1,inactive: 22.7%

# Look-ups from the entries so far.
# Cc1ccccc1OCc1nc2ccccc2c(=O)n1NC(=O)c1ccco1 – inhibition: inactive: 22.7%
# CCCOc1nc2c(c(=O)n(C)c(=O)n2C)n1CCC – inhibition: active: 24.2%
# Cc1ccc(S(=O)(=O)c2c(C)nn(C(C)(C)C)c2OC(=O)c2ccco2)cc1 – inhibition: active: 27.3%

# (more compounds)

row,Compound,inhibition
1,Cc1[nH]n(-c2cccc(Cl)c2)c(=O)c1-c1ccc(Cl)cc1,active: 27.2%
2,CSc1c(-c2ccccc2)nc2ccc(Cl)cc2c1C(=O)O,inconclusive: 26.7%
3,COC(=O)c1cc(=O)n(Cc2ccc3c(c2)OCO3)c(=Nc2ccccc2)s1,active: 26.5%
4,Cc1ccc(NC(=O)CS(=O)CC(=O)N(CC(=O)NC2CCCC2)c2cc(C)ccc2C)cc1 (stereo not drawn),inconclusive: 11.6%
5,Nc1nc2nccc(-c3ccc(Cl)cc3)n2n1,inconclusive: 13.9%
6,COc1ccc2ccccc2c1/C=N/O,inactive: 6.62%
7,Cn1nnnc1Sc1ccc([N+](=O)[O-])cc1Cl,inactive: 4.02%
8,O=C(O)CC(C(=O)O)N1C(=O)/C(=C/c2ccc(-c3nc4ccccc4s3)o2)SC1=S (stereo not drawn),active: 24.7%
9,Cc1ccc(-c2ccc(C3C(C#N)=C(N)Oc4n[nH]c(C)c43)o2)cc1 (stereo not drawn),inactive: 12.9%
10,CCOC(=O)/C(=C\C=C1/Sc2ccccc2N1CC)C(C)=O,inconclusive: 26.7%
11,CCCCCCNC(=O)c1cc(-c2ccco2)nc2ccccc12,inconclusive: 23.4%
12,Cc1ccsc1/C=N/NC(=O)c1ccc([N+](=O)[O-])cc1,inactive: 4%
13,COC(=O)c1sc2nc(-c3ccccc3)c3c(c2c1N)CCCC3,inactive: 0.85%
14,C=CCOc1ccc(/C=C2\SC(=S)N(N3CCOCC3)C2=O)cc1,inactive: -2.77%
15,CC(C)(C)c1ccc(Oc2cccc(C3CC(=O)C(C4NCCc5ccccc54)C(=O)C3n3cncn3)c2)cc1 (stereo not drawn),inconclusive: 27.8%
16,CC(C)CC(C(=O)Nn1cnnc1)N1C(=O)c2ccccc2C1=O (stereo not drawn),active: 25.1%
17,O=C(O)c1cccc(NC(=S)NC(=O)c2ccc(-c3ccc(Cl)cc3)o2)c1,inconclusive: 24.9%
18,NC(=S)N=Nc1c(O)[nH]c2ccccc12,inactive: 23.1%
19,Nc1cc2c(cc1[N+](=O)[O-])OCO2,inactive: 7.4%
20,c1cnc2c(OCc3cn4cccnc4n3)cccc2c1,inconclusive: 28%
21,COc1cc(NS(=O)(=O)c2ccc(NC(=O)CSC3=NCCS3)cc2)nc(OC)n1,inconclusive: 23.5%
22,CCCn1c2c(c(O)c(C(=O)Nc3ncccc3O)c1=O)CCCC2,active: 25.1%

# 2 of the compounds above, with tabs:
row	Compound	inhibition
7	Cn1nnnc1Sc1ccc([N+](=O)[O-])cc1Cl	inactive: 4.02%
8	O=C(O)CC(C(=O)O)N1C(=O)/C(=C/c2ccc(-c3nc4ccccc4s3)o2)SC1=S (stereo not drawn)	active: 24.7%

# Further results:

row,Compound,inhibition
1,CCCCCc1ccc(CC(=O)O)cc1,inactive: 3%
2,COc1cccc(NS(=O)(=O)c2ccc3c(c2)C2C=CCC2C(c2ccc(C(=O)O)cc2)N3)c1 (stereo not drawn),inactive: 22.8%
3,CC(C)C(=O)N1CCC(CN=Cc2c(O)n(C3CCCCC3)c(=O)n(C3CCCCC3)c2=O)CC1,active: 27%
4,Cc1ccc(NC(=O)c2ccccc2NS(=O)(=O)c2ccc(Cl)s2)cc1S(=O)(=O)N1CCOCC1,inconclusive: 26.2%
5,COc1cc(/C=C2/SC(=S)N(CC(=O)Nc3nc4ccccc4s3)C2=O)cc(OC)c1OC,inactive: 6.28%
6,CC1CC(C)(C)OC(C[N+]2(C)CCCCC2)O1 (stereo not drawn),inconclusive: 23.9%
7,Cc1c(N=Cc2ccco2)c(=O)n(-c2ccccc2)n1C,inconclusive: 8.82%
8,CC(=NCc1ccncc1)C1=C(O)c2ccccc2C1=O,active: 23.6%
9,CCC(CC)C(=O)Nc1c2cnn(-c3ccccc3)c2nc(=O)n1-c1ccccc1,inconclusive: 28.3%
10,CC(=O)Nc1nc(C(=O)O)cs1,inactive: -0.08%
11,c1ccc(N2N=C(c3cccs3)CC2c2ccco2)cc1 (stereo not drawn),inactive: 18.2%
12,COc1ccccc1CN(Cc1cc2cc3c(cc2[nH]c1=O)OCCO3)Cc1nnnn1Cc1ccco1,inconclusive: 26.1%
13,O=C(Cn1cnc2scc(-c3ccc(Br)cc3)c2c1=O)N1CCOCC1,inconclusive: 23.3%
14,O=C(NCCC1=CCCCC1)C1CCN(S(=O)(=O)c2ccccc2)CC1,inconclusive: 27.6%
15,CCOc1cc(/C=C2\C(=O)N(c3ccc(C(N)=O)cc3)N=C2C)ccc1OC(=O)c1cccs1,inconclusive: 27.2%
16,CCOC(=O)c1sc2nc(C(C)C)c3c(c2c1N)CC(C)(C)OC3,inactive: 22.1%
17,O=C1/C(=C/c2ccccn2)SC(=S)N1NS(=O)(=O)c1ccccc1,inconclusive: 25.1%
18,C(=N\Nc1ncnc2nc[nH]c12)/c1cccs1,inconclusive: 24.8%
19,Cc1cc(/C=C2\SC(=S)NC2=O)c(C)n1C1CC1,inconclusive: 25.3%
20,COCCCn1c(=N)c(C(=O)NC2CCCCC2)cc2c(=O)n3ccccc3nc21,inconclusive: 26.2%
21,COC(=O)c1cc2c(ccn2-c2ccc(F)cc2)n1CC(=O)OC(C)C,inactive: 1.89%
22,CCOC(=O)N(C)OC(=O)Nc1ccc(Cl)c(Cl)c1,active: 24%

row,Compound,inhibition
1,CCOC(=O)c1cc2c(=O)n3ccccc3nc2n(CCOC)c1=NC(=O)C(C)(C)C,inactive: 16.9%
2,O=C(COC(=O)c1cn(-c2ccccc2)nc1-c1ccccc1)c1cccc([N+](=O)[O-])c1,inconclusive: 29%
3,O=C(O)c1cccnc1SCc1cn2cc(Br)ccc2n1,inconclusive: 23.7%
4,N=C1/C(=C\c2ccc(-c3cccc(Cl)c3)o2)C(=O)N=C2SC=C(c3ccccc3)N12,inactive: 15.9%
5,O=C(NCc1cccs1)C1CCN(S(=O)(=O)c2cccc3cccnc23)CC1,active: 45.9%
6,CCOc1ccc(NCc2cc3c(C(C)(C)C)nn(-c4ccccc4)c3[nH]c2=O)cc1,inconclusive: 27.7%
7,COc1ccccc1NC(=O)CSc1nnc(-c2ccc(NC(C)=O)cc2)n1C,inconclusive: 26.2%
8,Cc1cc(C(=O)COC(=O)c2cc(O)c3ccccc3c2O)c(C)n1CC1CCCO1 (stereo not drawn),inconclusive: 40.2%
9,Cc1cc2nc(-c3ccc(SCC(=O)N4CCN(C(=O)c5ccco5)CC4)nc3)[nH]c2cc1C,inconclusive: 24.2%
10,CCOC(=O)c1cnc2c(C)c(C)ccc2c1Nc1ccc(S(=O)(=O)Nc2ncccn2)cc1,inconclusive: 23.6%
11,CC1CN(c2ncc(/C=N/NC(=O)c3ccccc3O)s2)CC(C)O1 (stereo not drawn),inconclusive: 26.2%
12,COCCCNC(=O)c1c(N)n(-c2cccc(S(N)(=O)=O)c2)c2nc3ccccc3nc12,inconclusive: 3.11%
13,Cc1cccc(/C=N/NC(=O)c2cc(-c3cccnc3)nc3ccccc23)c1,inactive: 5.37%
14,Cc1cc(C)c2[nH]c(=O)c(CN(Cc3ccco3)C(=O)C3CCCO3)cc2c1 (stereo not drawn),inconclusive: 25.1%
15,C=CCn1c(Cn2nnc3ccccc32)nnc1SCC(=O)N/N=C/c1cc(Br)cc(OC)c1O,active: 46.2%
16,COc1ccc(/C=C2/SC(=O)N(CCC(=O)Nc3ccccc3)C2=O)cc1OC,inactive: -3.04%
17,OCCC1CN(Cc2nc(-c3ccccc3)cs2)CCN1CCc1ccccc1 (stereo not drawn),inactive: 7.68%
18,COc1cc([N+](=O)[O-])cc(/C=N/NC(=O)c2ccc(C)nc2)c1O,inconclusive: 28.1%
19,CC1(C)Cc2c(cnn2-c2ccccc2)C(=O)/C1=N\NC(=O)c1ccccc1O,inconclusive: 23.4%
20,Cc1cccc(NC(NC(=O)c2ccccc2[N+](=O)[O-])C(Cl)(Cl)Cl)c1 (stereo not drawn),inconclusive: 26.2%
21,CC1(C)Cc2c(C#N)c(N3CCN(C(=O)c4ccccc4Cl)CC3)nc(-c3ccco3)c2CS1,inconclusive: 11.9%
22,O=C(Cc1cc(=O)[nH][nH]1)N/N=C/c1c(Cl)cccc1Cl,inconclusive: 27.8%
